From publication PMC9266683
These are yes or no findings as the source states them, for the method shown. For some assays here: In cells and extracts the contact can be indirect. Some entries that bind do so weakly or less than the wild type. Sequences can lack the tags named with a protein.

By UniProt entry, the sequences of proteins in these tests, tags left out. Where a name states a change or a piece, a line headed by the entry shows the natural chain unless it says otherwise. Chains listed by the source or under a name are the forms on record and can include a tag or linker. Residues count along the entry.
UniProt O04539, residues 1-420: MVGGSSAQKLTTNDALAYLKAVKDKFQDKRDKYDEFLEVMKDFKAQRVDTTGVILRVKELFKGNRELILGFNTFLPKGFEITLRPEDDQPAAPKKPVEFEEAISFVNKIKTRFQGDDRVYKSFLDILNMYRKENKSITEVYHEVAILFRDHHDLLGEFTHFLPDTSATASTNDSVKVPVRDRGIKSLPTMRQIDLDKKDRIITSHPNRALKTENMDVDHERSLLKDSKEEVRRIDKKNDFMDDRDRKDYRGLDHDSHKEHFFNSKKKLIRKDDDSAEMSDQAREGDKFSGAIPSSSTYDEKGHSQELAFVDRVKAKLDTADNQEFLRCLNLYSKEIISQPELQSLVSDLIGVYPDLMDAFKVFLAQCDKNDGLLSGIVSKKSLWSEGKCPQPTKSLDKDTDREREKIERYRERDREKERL
UniProt O48686: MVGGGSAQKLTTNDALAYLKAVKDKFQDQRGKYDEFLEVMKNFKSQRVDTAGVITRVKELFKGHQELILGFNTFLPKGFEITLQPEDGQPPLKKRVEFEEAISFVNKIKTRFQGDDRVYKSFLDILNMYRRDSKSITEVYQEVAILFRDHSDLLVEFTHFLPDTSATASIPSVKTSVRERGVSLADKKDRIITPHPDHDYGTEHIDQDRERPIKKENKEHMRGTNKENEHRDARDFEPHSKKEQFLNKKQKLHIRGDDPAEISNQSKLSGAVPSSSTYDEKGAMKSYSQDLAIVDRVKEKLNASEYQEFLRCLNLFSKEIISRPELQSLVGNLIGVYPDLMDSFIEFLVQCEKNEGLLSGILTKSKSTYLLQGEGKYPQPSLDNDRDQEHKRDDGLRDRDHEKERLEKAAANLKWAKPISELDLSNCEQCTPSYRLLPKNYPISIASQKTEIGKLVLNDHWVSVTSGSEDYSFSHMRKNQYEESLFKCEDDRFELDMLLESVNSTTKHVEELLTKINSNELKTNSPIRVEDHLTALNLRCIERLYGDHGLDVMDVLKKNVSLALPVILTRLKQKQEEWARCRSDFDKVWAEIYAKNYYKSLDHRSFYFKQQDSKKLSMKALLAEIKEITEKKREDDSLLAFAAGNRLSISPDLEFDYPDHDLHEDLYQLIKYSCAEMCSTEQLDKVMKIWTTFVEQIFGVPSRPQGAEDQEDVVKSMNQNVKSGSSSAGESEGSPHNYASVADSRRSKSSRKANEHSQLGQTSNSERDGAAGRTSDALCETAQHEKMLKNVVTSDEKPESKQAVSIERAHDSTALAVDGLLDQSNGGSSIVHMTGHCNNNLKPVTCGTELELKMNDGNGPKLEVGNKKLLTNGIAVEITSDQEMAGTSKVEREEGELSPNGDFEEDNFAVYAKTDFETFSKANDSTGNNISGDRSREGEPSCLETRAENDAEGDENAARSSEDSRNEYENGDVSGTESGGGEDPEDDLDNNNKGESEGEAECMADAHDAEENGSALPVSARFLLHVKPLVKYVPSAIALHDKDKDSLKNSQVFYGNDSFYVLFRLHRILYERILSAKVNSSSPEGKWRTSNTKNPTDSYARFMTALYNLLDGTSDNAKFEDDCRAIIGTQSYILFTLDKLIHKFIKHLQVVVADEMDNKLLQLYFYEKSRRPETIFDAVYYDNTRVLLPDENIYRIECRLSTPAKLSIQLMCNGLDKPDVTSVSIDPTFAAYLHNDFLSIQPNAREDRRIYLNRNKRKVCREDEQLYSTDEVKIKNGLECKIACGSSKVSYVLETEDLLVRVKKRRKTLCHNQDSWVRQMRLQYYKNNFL
SNL3-PAH (aa 1–390), fused to the GAL4 binding domain: residues 1-390 of O48686
UniProt Q9XIE1, residues 1-250: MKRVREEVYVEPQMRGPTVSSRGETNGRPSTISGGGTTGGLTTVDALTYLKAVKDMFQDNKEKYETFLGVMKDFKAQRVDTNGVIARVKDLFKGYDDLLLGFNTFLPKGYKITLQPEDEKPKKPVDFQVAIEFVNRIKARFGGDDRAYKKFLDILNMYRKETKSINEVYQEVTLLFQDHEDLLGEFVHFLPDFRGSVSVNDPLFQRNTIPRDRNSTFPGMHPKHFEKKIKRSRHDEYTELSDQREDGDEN

B1: His-VAL1-CW (aa 458–673) (domain or fragment, UniProt Q8W4L5 458-673)
chain: DDPTRVKEKKRTRTIGAKNKRLLLHSEESMELRLTWEEAQDLLRPSPSVKPTIVVIEEQEIEEYDEPPVFGKRTIVTTKPSGEQERWATCDDCSKWRRLPVDALLSFKWTCIDNVWDVSRCSCSAPEESLKELENVLKVGREHKKRRTGESQAAKSQQEPCGLDALASAAVLGDTIGEPEVATTTRHPRHRAGCSCIVCIQPPSGKGRHKPTCGCT
B2: VAL2-CW (aa 437–655), yeast two-hybrid fusion (domain or fragment, UniProt Q5CCK4 437-655)
chain: SSLTSARKRVRNIGTKSKRLLIDSVDVLELKITWEEAQELLRPPQSTKPSIFTLENQDFEEYDEPPVFGKRTLFVSRQTGEQEQWVQCDACGKWRQLPVDILLPPKWSCSDNLLDPGRSSCSAPDELSPREQDTLVRQSKEFKRRRLASSNEKLNQSQDASALNSLGNAGITTTGEQGEITVAATTKHPRHRAGCSCIVCSQPPSGKGKHKPSCTCTVC
B3: VAL2, yeast two-hybrid fusion (protein, UniProt Q5CCK4 1-780)
chain: MESIKVCMNALCGAASTSGEWKKGWPMRSGDLASLCDKCGCAYEQSIFCEVFHAKESGWRECNSCDKRLHCGCIASRFMMELLENGGVTCISCAKKSGLISMNVSHESNGKDFPSFASAEHVGSVLERTNLKHLLHFQRIDPTHSSLQMKQEESLLPSSLDALRHKTERKELSAQPNLSISLGPTLMTSPFHDAAVDDRSKTNSIFQLAPRSRQLLPKPANSAPIAAGMEPSGSLVSQIHVARPPPEGRGKTQLLPRYWPRITDQELLQLSGQYPHLSNSKIIPLFEKVLSASDAGRIGRLVLPKACAEAYFPPISLPEGLPLKIQDIKGKEWVFQFRFWPNNNSRMYVLEGVTPCIQSMQLQAGDTVTFSRTEPEGKLVMGYRKATNSTATQMFKGSSEPNLNMFSNSLNPGCGDINWSKLEKSEDMAKDNLFLQSSLTSARKRVRNIGTKSKRLLIDSVDVLELKITWEEAQELLRPPQSTKPSIFTLENQDFEEYDEPPVFGKRTLFVSRQTGEQEQWVQCDACGKWRQLPVDILLPPKWSCSDNLLDPGRSSCSAPDELSPREQDTLVRQSKEFKRRRLASSNEKLNQSQDASALNSLGNAGITTTGEQGEITVAATTKHPRHRAGCSCIVCSQPPSGKGKHKPSCTCTVCEAVKRRFRTLMLRKRNKGEAGQASQQAQSQSECRDETEVESIPAVELAAGENIDLNSDPGASRVSMMRLLQAAAFPLEAYLKQKAISNTAGEQQSSDMVSTEHGSSSAAQETEKDTTNGAHDPVN

Columns and labels:
[1] = target: T1, GST-SNL6-PAH (aa 1–300) (Arabidopsis thaliana) (UniProt Q9XIK6); test: pull-down; supernatants of E. coli lysates in PBS pH 7.5 mixed in roughly equal amounts, incubated with glutathione beads or Ni Singarose 6FF overnight at 4 °C, washed five times with PBS; GST fusion held, His fusion detected with anti-His antibody
T1 sequence: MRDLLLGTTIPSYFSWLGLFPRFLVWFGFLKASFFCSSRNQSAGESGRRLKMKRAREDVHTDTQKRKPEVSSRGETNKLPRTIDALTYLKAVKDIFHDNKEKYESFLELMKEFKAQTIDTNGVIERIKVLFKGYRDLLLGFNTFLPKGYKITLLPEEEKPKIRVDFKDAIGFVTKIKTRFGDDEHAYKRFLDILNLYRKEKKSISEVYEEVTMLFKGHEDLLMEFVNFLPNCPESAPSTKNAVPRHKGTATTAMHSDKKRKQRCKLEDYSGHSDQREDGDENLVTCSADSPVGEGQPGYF

[2] = target: T2, GST-SNL1-PAH (aa 1–450) (Arabidopsis thaliana) (UniProt Q9SRH9); test: as above
T2 sequence: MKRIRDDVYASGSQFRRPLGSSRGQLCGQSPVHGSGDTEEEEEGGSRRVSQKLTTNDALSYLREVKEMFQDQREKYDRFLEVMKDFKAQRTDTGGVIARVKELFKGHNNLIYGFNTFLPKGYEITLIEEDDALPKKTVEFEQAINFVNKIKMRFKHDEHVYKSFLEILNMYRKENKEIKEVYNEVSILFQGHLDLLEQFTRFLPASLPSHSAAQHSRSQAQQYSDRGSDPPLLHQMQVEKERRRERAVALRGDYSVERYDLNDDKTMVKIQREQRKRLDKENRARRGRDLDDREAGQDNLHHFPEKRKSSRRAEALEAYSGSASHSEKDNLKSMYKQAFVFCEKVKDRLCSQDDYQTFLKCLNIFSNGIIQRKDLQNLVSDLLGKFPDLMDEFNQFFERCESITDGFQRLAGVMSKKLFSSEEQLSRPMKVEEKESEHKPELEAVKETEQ

[3] = target: GST-SNL4-PAH (aa 1–420) (Arabidopsis thaliana) (UniProt O04539); test: as above
[4] = target: GST-SNL3-PAH (aa 1–390) (Arabidopsis thaliana) (UniProt O48686); test: as above
[5] = target: GST-SNL5-PAH (aa 1–250) (Arabidopsis thaliana) (UniProt Q9XIE1); test: as above
[6] = target: T3, GST-SNL2-PAH (aa 1–430) (Arabidopsis thaliana) (UniProt Q9LFQ3); test: as above
T3 sequence: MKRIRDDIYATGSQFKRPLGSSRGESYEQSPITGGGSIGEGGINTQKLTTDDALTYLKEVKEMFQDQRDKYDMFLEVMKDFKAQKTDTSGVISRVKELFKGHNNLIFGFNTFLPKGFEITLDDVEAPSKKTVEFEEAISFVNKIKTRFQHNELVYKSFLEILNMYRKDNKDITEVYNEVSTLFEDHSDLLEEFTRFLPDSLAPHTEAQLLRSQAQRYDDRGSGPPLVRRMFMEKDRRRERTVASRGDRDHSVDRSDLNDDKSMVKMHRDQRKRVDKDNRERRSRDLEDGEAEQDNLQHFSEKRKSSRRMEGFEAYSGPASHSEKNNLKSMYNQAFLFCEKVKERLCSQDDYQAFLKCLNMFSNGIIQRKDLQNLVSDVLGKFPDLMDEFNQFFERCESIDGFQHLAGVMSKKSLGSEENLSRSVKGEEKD

[7] = target: SNL3 (SIN3-LIKE 3), full length, fused to the GAL4 binding domain (Arabidopsis thaliana) (UniProt O48686); test: two-hybrid; Matchmaker GAL4 two-hybrid system 3, yeast AH109; VAL1 constructs in pGADT7 (AD), SNL constructs in pGBKT7 (BD); growth on medium lacking Trp, Leu, His and Ade, 3-5 d at 30 °C
[8] = target: SNL3-PAH (aa 1–390), fused to the GAL4 binding domain (Arabidopsis thaliana) (UniProt O48686); test: as above
[9] = target: T4, SNL1 (SIN3-LIKE 1), full length, fused to the GAL4 binding domain (Arabidopsis thaliana) (UniProt Q9SRH9); test: as above
T4 sequence: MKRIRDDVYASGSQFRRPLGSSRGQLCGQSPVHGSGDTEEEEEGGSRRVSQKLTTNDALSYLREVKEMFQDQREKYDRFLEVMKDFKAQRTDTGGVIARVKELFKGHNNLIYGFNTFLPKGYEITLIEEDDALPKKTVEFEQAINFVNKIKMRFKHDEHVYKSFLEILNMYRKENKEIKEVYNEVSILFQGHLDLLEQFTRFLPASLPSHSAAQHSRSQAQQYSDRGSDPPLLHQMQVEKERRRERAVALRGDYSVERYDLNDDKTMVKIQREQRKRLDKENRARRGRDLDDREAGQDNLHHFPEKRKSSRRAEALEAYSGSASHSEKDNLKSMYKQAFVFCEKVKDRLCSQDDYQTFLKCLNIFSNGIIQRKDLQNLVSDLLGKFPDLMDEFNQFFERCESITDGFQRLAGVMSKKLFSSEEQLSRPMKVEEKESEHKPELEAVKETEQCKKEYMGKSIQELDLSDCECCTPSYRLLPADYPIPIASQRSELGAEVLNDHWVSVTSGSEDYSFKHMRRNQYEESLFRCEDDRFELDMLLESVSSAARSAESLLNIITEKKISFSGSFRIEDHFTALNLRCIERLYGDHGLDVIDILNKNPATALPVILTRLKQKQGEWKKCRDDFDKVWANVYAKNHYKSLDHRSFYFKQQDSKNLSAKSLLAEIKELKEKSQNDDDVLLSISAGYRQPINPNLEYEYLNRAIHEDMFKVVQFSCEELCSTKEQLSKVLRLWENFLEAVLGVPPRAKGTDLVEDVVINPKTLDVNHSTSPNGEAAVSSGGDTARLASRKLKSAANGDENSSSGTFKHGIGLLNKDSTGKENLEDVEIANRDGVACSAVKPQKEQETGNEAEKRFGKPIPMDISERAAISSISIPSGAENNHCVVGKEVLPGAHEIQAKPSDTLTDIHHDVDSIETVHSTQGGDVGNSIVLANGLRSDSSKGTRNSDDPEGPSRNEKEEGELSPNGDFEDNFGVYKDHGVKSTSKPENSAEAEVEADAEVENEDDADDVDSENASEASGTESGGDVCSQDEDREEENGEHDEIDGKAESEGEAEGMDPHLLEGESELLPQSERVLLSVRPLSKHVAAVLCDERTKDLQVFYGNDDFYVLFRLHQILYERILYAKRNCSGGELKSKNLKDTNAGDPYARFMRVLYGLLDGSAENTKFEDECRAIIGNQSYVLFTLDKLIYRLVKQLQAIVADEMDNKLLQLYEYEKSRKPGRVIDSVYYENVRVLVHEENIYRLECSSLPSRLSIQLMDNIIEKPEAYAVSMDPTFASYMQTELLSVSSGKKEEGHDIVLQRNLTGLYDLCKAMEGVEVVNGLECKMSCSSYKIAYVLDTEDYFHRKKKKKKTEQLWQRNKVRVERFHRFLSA

[10] = target: T5, SNL1-PAH (aa 1–450), fused to the GAL4 binding domain (Arabidopsis thaliana) (UniProt Q9SRH9); test: as above
T5 sequence: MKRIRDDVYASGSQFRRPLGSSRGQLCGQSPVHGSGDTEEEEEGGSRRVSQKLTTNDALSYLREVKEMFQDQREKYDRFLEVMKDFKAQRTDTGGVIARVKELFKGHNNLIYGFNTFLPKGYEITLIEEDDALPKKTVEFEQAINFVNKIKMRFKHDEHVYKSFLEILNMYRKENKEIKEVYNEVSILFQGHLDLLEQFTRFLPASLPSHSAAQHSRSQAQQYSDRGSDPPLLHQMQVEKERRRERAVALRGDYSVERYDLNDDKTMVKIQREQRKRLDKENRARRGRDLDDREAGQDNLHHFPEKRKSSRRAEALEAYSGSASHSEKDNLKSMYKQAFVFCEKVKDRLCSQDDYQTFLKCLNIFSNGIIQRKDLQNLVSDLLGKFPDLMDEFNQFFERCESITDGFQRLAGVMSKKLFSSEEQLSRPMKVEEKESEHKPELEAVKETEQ

| Binder | binding [1] | binding [2] | binding [3] | binding [4] | binding [5] | binding [6] | binding [7] | binding [8] | binding [9] | binding [10] |
| --- | --- | --- | --- | --- | --- | --- | --- | --- | --- | --- |
| B1 | binds | binds | binds | binds | binds | binds |  |  |  |  |
| B2 |  |  |  |  |  |  | no binding | no binding | no binding | no binding |
| B3 |  |  |  |  |  |  | no binding | no binding | no binding | no binding |
